Measured values from US20140056964A1, “GRANZYME B INHIBITOR COMPOSITIONS, METHODS AND USES FOR PROMOTING WOUND HEALING” (THE UNIVERSITY OF BRITISH COLUMBIA, priority 2010, published 2014).
No constants are given. Whether binding was seen depends on the method and setting. Some entries that bind do so weakly or less than the wild type. For some of these results: Where a sequence is shown, tags or fusion partners need not be part of it.

By UniProt entry, the sequences of proteins in these tests, tags left out. Residues count along the entry.
UniProt P07585, residues 17-359: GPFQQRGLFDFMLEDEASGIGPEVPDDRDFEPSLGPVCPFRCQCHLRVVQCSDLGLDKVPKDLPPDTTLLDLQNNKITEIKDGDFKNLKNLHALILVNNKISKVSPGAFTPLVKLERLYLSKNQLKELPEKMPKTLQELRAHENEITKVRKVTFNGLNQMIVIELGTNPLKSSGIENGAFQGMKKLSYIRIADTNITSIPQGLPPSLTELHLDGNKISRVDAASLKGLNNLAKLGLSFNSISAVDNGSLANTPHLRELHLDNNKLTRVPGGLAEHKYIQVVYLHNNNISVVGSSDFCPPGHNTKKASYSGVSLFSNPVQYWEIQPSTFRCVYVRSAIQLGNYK
UniProt P01137, residues 279-390: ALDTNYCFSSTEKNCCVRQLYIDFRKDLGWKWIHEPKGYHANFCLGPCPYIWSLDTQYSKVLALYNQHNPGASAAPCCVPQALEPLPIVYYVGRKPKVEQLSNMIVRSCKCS

Tests used:
[1] = biological target: T1, recombinant human soluble betaglycan (human) (UniProt Q03167); assay: betaglycan coated on 48 well plates, incubated with TGF-β, washed; Western blot of supernatants after 24 h (FIG. 16)
T1 sequence (glycosaminoglycan chains (proteoglycan), sites not stated, looked up): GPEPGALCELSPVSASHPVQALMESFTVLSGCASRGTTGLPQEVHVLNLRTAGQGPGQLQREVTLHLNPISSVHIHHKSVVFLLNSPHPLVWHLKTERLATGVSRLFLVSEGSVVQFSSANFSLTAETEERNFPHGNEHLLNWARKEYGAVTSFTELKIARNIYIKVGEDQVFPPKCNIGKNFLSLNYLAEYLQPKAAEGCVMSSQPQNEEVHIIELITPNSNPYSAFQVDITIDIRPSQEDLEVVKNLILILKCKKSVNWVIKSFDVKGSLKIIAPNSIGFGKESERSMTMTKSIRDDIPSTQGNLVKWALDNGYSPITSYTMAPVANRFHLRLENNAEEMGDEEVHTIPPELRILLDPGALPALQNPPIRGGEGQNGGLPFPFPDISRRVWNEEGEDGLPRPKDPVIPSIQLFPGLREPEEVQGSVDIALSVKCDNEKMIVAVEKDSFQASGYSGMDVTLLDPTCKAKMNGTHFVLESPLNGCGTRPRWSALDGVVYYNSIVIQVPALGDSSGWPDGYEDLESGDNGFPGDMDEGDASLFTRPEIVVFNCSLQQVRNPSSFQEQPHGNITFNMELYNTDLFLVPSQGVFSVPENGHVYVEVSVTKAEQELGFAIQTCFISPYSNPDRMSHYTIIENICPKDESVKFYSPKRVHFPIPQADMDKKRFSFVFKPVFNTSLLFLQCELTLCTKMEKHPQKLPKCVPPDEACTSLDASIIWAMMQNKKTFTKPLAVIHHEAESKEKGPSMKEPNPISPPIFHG

[2] = biological target: T1, recombinant human soluble betaglycan (human); assay: TGF-β1 added to proteoglycan coated on 48 well plates; Western blot of supernatants after 24 h
[3] = biological target: T2, recombinant human biglycan (human) (UniProt P21810); assay: as above
T2 sequence (glycosaminoglycan chains (proteoglycan), sites not stated, looked up): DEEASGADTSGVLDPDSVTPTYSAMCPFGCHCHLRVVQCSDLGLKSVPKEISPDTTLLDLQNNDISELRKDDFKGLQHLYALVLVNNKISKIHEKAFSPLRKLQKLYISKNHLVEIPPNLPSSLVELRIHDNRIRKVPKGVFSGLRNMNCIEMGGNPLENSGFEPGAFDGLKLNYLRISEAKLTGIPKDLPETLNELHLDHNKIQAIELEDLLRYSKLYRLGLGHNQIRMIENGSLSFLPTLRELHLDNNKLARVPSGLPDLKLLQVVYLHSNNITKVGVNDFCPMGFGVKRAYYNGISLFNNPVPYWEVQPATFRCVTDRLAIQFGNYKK

[4] = biological target: recombinant human decorin (human) (UniProt P07585); assay: as above
[5] = biological target: T1, recombinant human soluble betaglycan (human); assay: TGF-β release assay on coated plates (FIG. 5)
[6] = biological target: T2, recombinant human biglycan (human); assay: TGF-β release assay on coated plates (FIG. 5)
[7] = biological target: recombinant human decorin (human) (UniProt P07585); assay: TGF-β release assay on coated plates (FIG. 5)

Measured: binding

active TGF-β1 (from UniProt P01137 279-390) (ligand)
binds: [1] | [2] | [3] | [4] | [5] | [6] | [7]
